For at least one compound, name, drawing or mass did not settle the structure.
Tested on: cardiac myocytes
Assay: Cell Death Detection ELISA (cytoplasmic mono- and oligo-nucleosomes)
Assay type: cell-based, rat
Details: 10 mM, 48 hours (FIG. 1C)
Method: Myocytes were transduced with an adenoviral vector encoding LacZ (Ad-LacZ) or Sir2α (Ad-Sir2α) with or without serum for 48 hours followed by Cell Death ELISA (FIG. 1A). Alternatively, myocytes were transduced Ad-LacZ or Ad-Sir2α with or without H2O2 (100 μM) for 48 hours followed by Cell Death ELISA (FIG. 1B). […] Mean OD value of control was designated as 1. Each column represents mean from 3 different culture preparations.
Subsequently, it was determined whether cardiac myocyte death by Sir2α inhibition was due to apoptosis. […] Similar results were obtained using TUNEL staining. To examine whether activation of caspase-3 was involved in myocyte death induced by NAM and TSA, the effect of DEVD-CHO, a cell permeable inhibitor of caspase-3, upon myocyte death was examined.
Cardiac-specific overexpression of Sir2α was subsequently examined. […] After 7 days, most myocytes were dead in a low-density culture condition. […] It has been shown that pyruvate increases, while lactate decreases, the cellular NAD^+/NADH ratio, thereby positively or negatively regulating the activity of endogenous Sir2α (Fulco, et al. (2003) Mol. Cell 12:51-62).
Primary Culture of Neonatal Rat Ventricular Myocytes. […]
Assays for Apoptosis. Histone-associated DNA fragments were quantitated by the Cell Death Detection ELISA (ROCHE; Yamamoto, et al. (2003) J. Clin. Invest. 111:1463-1474).

## CC(=O)C(=O)O [pyruvate]
  cytoplasmic accumulation of mono- and oligo-nucleosomes induced by serum starvation: significantly inhibited

— US20100021924A1, “Transgenic animal and methods for decreasing cardiac cell death via cardiac-specific sir2alpha overexpression” (priority 2005, published 2010)
